# According to the supplement of paper PMC5407854, “Inhibitor of ppGalNAc-T3-mediated O-glycosylation blocks cancer cell invasiveness and lowers FGF23 levels” (eLife, 2017):
# The list shows a part of the results. Most entries show no effect beyond the scatter of the controls.
# System: ppGalNAc-T3 sensor
# Assay: T3 sensor activation Q score (MG/GFP ratio z-score vs DMSO controls) (SD units); higher = more sensor activation (inhibition of ppGalNAc-T3 glycosylation)
# Conditions: HEK293 sensor cells; 10 µM; 6 h
# Procedure: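 Cells were treated with compound at 10 uM for 6 h, then MG/GFP ratio was read by flow cytometry (10,000 cells per well, duplicate wells). Q = (R - R_neg)/SD_neg relative to DMSO vehicle controls; the signal rises when the glycosyltransferase is inhibited.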
row,SMILES,T3 sensor activation Q score
1,CCN(C(=O)C(C)Oc1ccccc1)c1ccccc1C (stereo not given),-0.675
2,COc1cc2nc(C)sc2cc1OC,0.725
3,CCOc1ccccc1CN1CCC(O)CC1,0.705
4,c1ccc(-n2cccc2CNC2CCCCC2)cc1,0.31
5,COc1ccc(N2C(=O)C(O)=C(C(C)=O)C2c2ccc(OC)c(OC)c2)cc1 (stereo not given),-0.475
6,Cc1ccc(S(=O)(=O)CC(N)=O)cc1,-1.23
7,COc1ccc(C(=O)c2ccc(Br)cc2)cc1,0.42
8,CCc1ccccc1NC(=O)Nc1cccc(Cl)c1,0.065
9,CCCN(CCO)Cc1cccc(F)c1,-0.085
10,O=C(O)CC1Sc2ccccc2NC1=O (stereo not given),-0.025
11,CCOc1cc(CN2CCN(c3cccc(C)c3C)CC2)ccc1O,0
12,CCOc1ccc(NC(=O)Nc2ccccc2)cc1,-0.065
13,CCOc1ccc(NC(=O)c2cccs2)cc1,-0.66
14,NC(=O)C1CCN(C2CC(=O)N(c3cccc(Cl)c3)C2=O)CC1 (stereo not given),0.08
15,O=C1C2C3C=CC(C3)C2C(=O)N1c1nccs1 (stereo not given),0.38
16,Fc1ccccc1CN1CCN(c2ccccn2)CC1,0.325
17,CN1CCN(Cc2cccc(OCc3ccccc3)c2)CC1,0.135
18,Cc1ccc2c(C)nc(N=C(N)N)nc2c1,0.43
19,CCOc1ccc(N2C(=O)CC(N3CCCC3)C2=O)cc1 (stereo not given),-0.43
20,CC(=O)Nc1ccc(OCc2ccccc2)cc1,-0.41

# Individual results from the entries so far.
# Value of `O=C1C2C3C=CC(C3)C2C(=O)N1c1nccs1` (stereo not given) under T3 sensor activation Q score: 0.38
# Value of `c1ccc(-n2cccc2CNC2CCCCC2)cc1` under T3 sensor activation Q score: 0.31

# Later entries.

row,SMILES,T3 sensor activation Q score
1,O=C(Nc1cccc(Cl)c1)N1CCCCC1,1.09
2,Cc1ccccc1N1CCN(Cc2ccc(Br)s2)CC1,0.02
3,Cc1cccc(OCCNCCO)c1C,0.275
4,COc1ccc(C2(C(N)=O)CCCC2)cc1OC,-0.665
5,CC(C)c1ccc(NC(=O)c2ccco2)cc1,-0.765
6,O=C(O)c1ccc(S(=O)(=O)N2CCOCC2)cc1,2.8
7,COc1cc(OC)cc(C(=O)NC2C3CC4CC(C3)CC2C4)c1 (stereo not given),-0.965
8,c1ccc(OCCN2CCOCC2)cc1,0.165
9,CC(=O)N(C1=C(N2CCCC2)C(=O)c2ccccc2C1=O)c1cccc(Cl)c1,-0.285
10,CCN(C(=O)Cc1ccc(Cl)cc1)c1ccccc1C,-0.13
11,CC(=O)c1ccc(N2CCN(C(=O)c3ccccc3F)CC2)c(F)c1,1.08
12,COc1cc(CN2CCN(c3ccccc3)CC2)c([N+](=O)[O-])cc1OC,-0.485
13,Cc1cccc(CN(C)C2CCN(C)CC2)c1,0.325
14,COc1ccc(S(=O)(=O)Nc2cccc(Cl)c2Cl)cc1,0.355
15,O=C(c1ccccc1Br)N1CCCCC1CO (stereo not given),-0.38
16,CCc1c(O)nc(SC(C)CC)n(-c2ccccc2)c1=O (stereo not given),-0.24
17,CC(C)(C)S(=O)(=O)c1ccsc1S(C)(=O)=O,0.85
18,CCC(=O)N1CCN(c2ccc([N+](=O)[O-])cc2)CC1,0.35
19,CN1CCN(C/C=C/c2ccc(N(C)C)cc2)CC1,0
20,Cc1ccc(C(=O)Nc2ccc(C(=O)O)cc2)cc1C,-0.35
